{
  "source": "patent US7122193B1",
  "about": "(priority 1994, dated 2006)",
  "key": {"[1]": {"tested_on": "anti-histone H3 (parent protein) antibodies induced in the rabbit", "assay_type": "binding"}, "BALB/c mice": {"tested_on": "BALB/c mice", "settings": "mouse, in vivo"}},
  "note": "“And” between values parts separate entries of the source, which are not always exact repeats. Identical values can stand only once. Not every detail of the peptide structures is certain; ends, links or a residue may be inferred. Peptide text beside a SMILES is read from it.",
  "data": [
    {"smiles": "CC[C@@H](C)[C@@H](NC(=O)CNC(=O)CNC(=O)[C@H](N)CS)C(=O)N[C@H](CCCNC(=N)N)C(=O)NCC(=O)N[C@H](CCC(=O)O)C(=O)N[C@H](CCCNC(=N)N)C(=O)N[C@H](C)C(=O)O", "note": "[D peptide] (HELM PEPTIDE1{[dC].G.G.[dI].[dR].G.[dE].[dR].[dA]}$$$$V2.0)", "values": [
      {"measurement": "bonding of MAb 11×2 to the L peptide in the presence of a non-digested peptide", "setting": "trypsin", "result": 260, "unit": "RU"},
      {"measurement": "Optical density values at 450 nm, reactivity with normal rabbit serum", "setting": "[1]", "result": "0.03 and 0.05 and 0.04"},
      {"measurement": "antibody subclasses of the response", "setting": "BALB/c mice", "result": "the IgG3 antibody response is predominant"}
    ]}
  ]
}
